These results are taken from article PMC10491434, “SPOP targets the immune transcription factor IRF1 for proteasomal degradation” (eLife, 2023).

Amino acid sequences for entries named in this document (tags omitted).
UniProt O43791: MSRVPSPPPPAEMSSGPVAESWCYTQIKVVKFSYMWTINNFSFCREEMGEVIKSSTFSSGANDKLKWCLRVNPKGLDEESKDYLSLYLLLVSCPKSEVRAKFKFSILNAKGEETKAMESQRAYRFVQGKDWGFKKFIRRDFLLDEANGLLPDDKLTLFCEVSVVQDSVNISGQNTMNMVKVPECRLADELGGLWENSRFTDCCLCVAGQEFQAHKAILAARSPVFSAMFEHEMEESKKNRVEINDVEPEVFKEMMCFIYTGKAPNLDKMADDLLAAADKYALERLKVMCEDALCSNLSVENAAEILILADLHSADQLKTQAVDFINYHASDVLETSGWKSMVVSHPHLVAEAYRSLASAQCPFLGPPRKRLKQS

For assay [1], the target named is T1, wild-type interferon regulatory factor 1 (wtIRF1) (human) (UniProt P10914).
T1 sequence: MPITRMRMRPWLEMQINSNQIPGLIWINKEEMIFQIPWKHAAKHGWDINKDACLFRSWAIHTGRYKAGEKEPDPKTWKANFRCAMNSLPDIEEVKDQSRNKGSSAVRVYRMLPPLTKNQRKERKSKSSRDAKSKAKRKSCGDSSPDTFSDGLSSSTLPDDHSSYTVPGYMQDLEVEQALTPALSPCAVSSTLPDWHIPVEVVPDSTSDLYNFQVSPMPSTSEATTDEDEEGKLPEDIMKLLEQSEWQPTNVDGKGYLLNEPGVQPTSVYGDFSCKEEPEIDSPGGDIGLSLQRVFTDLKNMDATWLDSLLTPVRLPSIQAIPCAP
In words: co-IP; IRF1 precipitated with anti-IRF1 antibody and Protein A/G magnetic beads from lysates of transfected HEK-293T cells (36 hr post-transfection, epoxomicin 4 hr); Frackelton lysis buffer, overnight at 4°C, washes with RIPA buffer with 300 mM NaCl; western blot for SPOP. A general note: In western blotting, separated proteins are transferred to a membrane and probed.

The target in assay [2] is T2, IRF1-SBDmut (IRF1 mutant in which the S/T residues in the four SPOP binding domains were mutated to A) (human) (UniProt P10914).
T2 sequence: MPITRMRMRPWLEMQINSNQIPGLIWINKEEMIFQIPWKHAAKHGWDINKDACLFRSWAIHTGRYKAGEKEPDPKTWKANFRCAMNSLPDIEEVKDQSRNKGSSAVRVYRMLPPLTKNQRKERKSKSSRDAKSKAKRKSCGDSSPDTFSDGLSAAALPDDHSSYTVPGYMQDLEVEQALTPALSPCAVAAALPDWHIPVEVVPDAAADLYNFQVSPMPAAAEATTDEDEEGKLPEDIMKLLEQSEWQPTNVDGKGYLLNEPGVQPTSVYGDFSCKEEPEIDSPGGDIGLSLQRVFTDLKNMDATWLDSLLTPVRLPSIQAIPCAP
The description is as above.

Assay [3] addresses Ollas-tagged wild-type speckle type BTB/POZ protein (wtSPOP) (UniProt O43791). In words: co-IP; SPOP precipitated with anti-Ollas antibody and Protein G Sepharose from lysates of transfected HEK-293T cells (36 hr post-transfection, epoxomicin 4 hr); Frackelton lysis buffer, overnight at 4°C, washes with RIPA buffer with 300 mM NaCl; western blot for IRF1.

No constants are given. Whether binding was seen depends on the method and setting. In cells and extracts the contact can be indirect. Some binding calls cover weakened binding; strength is not graded here.

Regarding “Ollas-tagged wild-type speckle type BTB/POZ protein (wtSPOP) (from UniProt O43791 1-374)”, the binding entry in assay [1] is recorded as “binds”; in assay [2] it was “no binding”.

B1: wild-type interferon regulatory factor 1 (wtIRF1) (protein, UniProt P10914 1-325)
chain: MPITRMRMRPWLEMQINSNQIPGLIWINKEEMIFQIPWKHAAKHGWDINKDACLFRSWAIHTGRYKAGEKEPDPKTWKANFRCAMNSLPDIEEVKDQSRNKGSSAVRVYRMLPPLTKNQRKERKSKSSRDAKSKAKRKSCGDSSPDTFSDGLSSSTLPDDHSSYTVPGYMQDLEVEQALTPALSPCAVSSTLPDWHIPVEVVPDSTSDLYNFQVSPMPSTSEATTDEDEEGKLPEDIMKLLEQSEWQPTNVDGKGYLLNEPGVQPTSVYGDFSCKEEPEIDSPGGDIGLSLQRVFTDLKNMDATWLDSLLTPVRLPSIQAIPCAP
Take B1: the binding entry in assay [3] was “binds”.

B2: IRF1-SBDmut (IRF1 mutant in which the S/T residues in the four SPOP binding domains were mutated to A) (protein, UniProt P10914 1-325)
chain: MPITRMRMRPWLEMQINSNQIPGLIWINKEEMIFQIPWKHAAKHGWDINKDACLFRSWAIHTGRYKAGEKEPDPKTWKANFRCAMNSLPDIEEVKDQSRNKGSSAVRVYRMLPPLTKNQRKERKSKSSRDAKSKAKRKSCGDSSPDTFSDGLSAAALPDDHSSYTVPGYMQDLEVEQALTPALSPCAVAAALPDWHIPVEVVPDAAADLYNFQVSPMPAAAEATTDEDEEGKLPEDIMKLLEQSEWQPTNVDGKGYLLNEPGVQPTSVYGDFSCKEEPEIDSPGGDIGLSLQRVFTDLKNMDATWLDSLLTPVRLPSIQAIPCAP
Regarding B2, the binding result in assay [3] is listed as “no binding”.
